# Laboratory results from PubChem BioAssay AID445 (National Center for Advancing Translational Sciences (NCATS), 2006).
# The other results are listed elsewhere or left out. Further columns of the screen follow, without active or inactive calls. The list favours compounds with an active or inconclusive main result. The note in brackets gives the kind of curve behind each potency; many fits are weak.
# Assay: IkB Signaling
# Conditions: ABC-DLBCL IkBa-CBG/CBR dual luciferase ratio (green luciferase fused to IkBa over red control in OCI-Ly3 lymphoma cells), 4 h
# Outline: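 Curves were fitted separately to fusion (green), unfused (red) and ratio luminescence, then classed by r2, magnitude and activity. Cells: OCI-Ly3, 4 h compound plus doxycycline at 37C; 10 uM MG-132 defined full response.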
# [1] = measured here: control luc red channel unless noted
smiles,measurement,setting,value
CCOC(=O)C1CCCN(C(=O)c2ccc3c(c2)N(Cc2ccccc2)C(=O)c2ccccc2S3=O)C1 (stereo not drawn),AC50,[1],"39.8 µM [falling, single point]"
CCCC(=O)N1c2nc(C(C)C)nn2C2(CCCCC2)[C@@H]2CCCC[C@@H]21,AC50,[1],"15.8 µM [falling, partial curve]"
COc1cccc(NS(=O)(=O)c2ccc3[nH]cc(C(=O)N(C)C4CCCCC4)c(=O)c3c2)c1,AC50,[1],"12.6 µM [falling, partial curve, poor fit]"
O=C(c1cc(-c2cccc(O)c2)on1)N1CCc2ccccc2C1,AC50,measured here: IkB-luc green channel,"25.1 µM [falling, partial curve]"
same,AC50,measured here: control luc red channel,"12.6 µM [falling, partial curve]"
COc1cccc(CNC(=O)c2ccc(NC(=O)N3CCCCc4ccccc43)cc2)c1,AC50,[1],"39.8 µM [falling, single point]"
Cc1cc(C)nc(NC(=NCCc2c[nH]c3ccccc23)NC(=O)c2ccco2)n1,AC50,[1],"7.94 µM [falling, full curve]"
Cc1ccc(-c2cc(C(=O)N(Cc3ccccc3)Cc3ccco3)no2)cc1F,AC50,[1],"39.8 µM [falling, single point]"
O=C(COc1ccc(S(=O)(=O)NC2CCCCC2)cc1)N1CCN(c2ccc(F)cc2)CC1,AC50,[1],"15.8 µM [falling, partial curve]"
COc1ccccc1C(=O)Nc1nnc(S(=O)(=O)N2CCCCCC2)s1,AC50,[1],"3.16 µM [rising, partial curve]"
CCOc1ccc(NC(=O)CSC2=Nc3ccccc3C3=NC(CC(=O)NCc4ccc5c(c4)OCO5)C(=O)N23)cc1 (stereo not drawn),AC50,[1],"10 µM [falling, partial curve]"
COc1ccc(-c2nc3ccccc3n2Cc2ccc(Cl)cc2)cc1,AC50,[1],"15.8 µM [falling, partial curve]"
O=C(OCc1cc(=O)n2c3c(sc2n1)CCCC3)c1cccc(NC(=O)c2ccccc2F)c1,AC50,[1],"0.794 µM [falling, full curve]"
CC1CCCCN1CC(=O)N1CCCc2c1c(=O)oc1ccc(OCc3ccccc3)cc21 (stereo not drawn),AC50,[1],"31.6 µM [falling, single point]"
Cc1cc(Br)ccc1NC(=O)C1(S(=O)(=O)c2ccc(Cl)cc2)CC1,AC50,[1],"39.8 µM [falling, single point]"
COc1ccccc1C(=O)Nc1ccc(-c2nc3ccccc3s2)c(C)c1,AC50,[1],"3.98 µM [rising, partial curve]"
CCC(C)(C)n1nnnc1CN1CCN(c2nc3cc(OC)ccc3cc2C#N)CC1,AC50,[1],"10 µM [falling, partial curve]"
Cc1noc2nc(C(=O)O)nc(N3CCCCC3)c12,AC50,[1],"39.8 µM [falling, single point]"
CCOC(=O)c1sc(SCC(=O)Nc2ccc(N(C)C)cc2)nc1N,AC50,[1],"3.16 µM [falling, full curve]"
CCCCN(CC)C(=O)Nc1ccc2c(c1)N(C)C(=O)c1ccccc1S2,AC50,[1],"12.6 µM [falling, partial curve]"
COC(=O)c1c(C)sc(-c2c(-c3cccc(OC)c3)[nH]c3c2c(=O)[nH]c(=O)n3C)c1O,AC50,[1],"10 µM [falling, partial curve]"
COc1ccc(C)c2sc(N(Cc3cccnc3)C(=O)CCc3ccccc3)nc12,AC50,[1],"12.6 µM [falling, partial curve]"
CCCn1c(=O)c2sccc2n2c(CCCC(=O)Nc3ccc(C)c(F)c3)nnc12,AC50,[1],"20 µM [falling, single point]"
COc1ccc(-c2noc(CN3CCN(c4ccccc4OC)CC3)n2)cc1OC,AC50,[1],"39.8 µM [falling, single point]"
Cn1c(SCC(=O)Nc2nc3ccccc3s2)ncc(C(=O)Nc2ccccc2)c1=O,AC50,[1],"5.01 µM [falling, single point]"
COc1cccc(CNC(=O)CN2C(=O)N(c3ccc(C)cc3C)S(=O)(=O)c3ccccc32)c1OC,AC50,[1],"39.8 µM [falling, single point]"
COc1ccc(C)cc1-n1cnc2cc(C(=O)NC3CCCCCC3)ccc21,AC50,[1],"15.8 µM [falling, partial curve]"
O=C(NCCc1ccccc1)c1cc(-c2ccco2)on1,AC50,[1],"0.0251 µM [rising, full curve, poor fit]"
O=C(O)c1c(-c2ccccc2)oc2ccc(OCc3c(F)cccc3Cl)cc12,AC50,[1],"15.8 µM [falling, partial curve]"
Cn1c(SC2=CS(=O)(=O)c3ccccc32)nc2ccccc21,AC50,[1],"6.31 µM [falling, partial curve]"
COc1ccc(-c2nc3cc(C)ccn3c2NC(=O)c2cccc(F)c2)cc1,AC50,[1],"1 µM [falling, partial curve]"
COc1ccc(C)cc1NC(=O)c1cnc2ccc(C)cn2c1=O,AC50,[1],"3.16 µM [rising, partial curve, poor fit]"
Cc1ccc(OCC(=O)NCC(c2ccc(Cl)cc2)N2CCOCC2)cc1C (stereo not drawn),AC50,[1],"25.1 µM [falling, partial curve, poor fit]"
O=C(CCCCn1c(=O)c2ccccc2n(Cc2cccc(F)c2)c1=O)NCc1ccc2c(c1)OCO2,AC50,[1],"0.316 µM [rising, full curve, poor fit]"
Cc1cccc(Nc2c(-c3ccsc3)nc3nc(C)cc(C)n23)c1,AC50,[1],"31.6 µM [falling, single point]"
O=C(O)c1ccc2nc(-c3cc4cc(Cl)ccc4oc3=O)[nH]c2c1,AC50,[1],"0.1 µM [falling, full curve]"
Cc1ccc(-c2nc3c4ccccc4n(CC(=O)NCc4ccc(F)cc4)c(=O)n3n2)cc1,AC50,[1],"39.8 µM [rising, single point]"
O=C(CSc1nc(-c2ccccc2F)nc2cc(=O)[nH]n12)Nc1cccc(C(F)(F)F)c1,AC50,[1],"15.8 µM [falling, partial curve]"
O=C(Cn1cc(C(=O)COc2ccccc2)c2ccccc21)NCc1ccco1,AC50,[1],"15.8 µM [falling, partial curve]"
Cc1cc(C)cc(OCCCn2c(-c3ccc(Cl)cc3)nc3ccccc3c2=O)c1,AC50,[1],"39.8 µM [falling, single point]"
COC(=O)c1sc(-c2ccccc2)cc1NC(=O)Nc1ccc(F)cc1,AC50,[1],"15.8 µM [falling, single point]"
COc1ccc(Cc2nn3c(-c4cc(OC)c(OC)c(OC)c4)nnc3s2)cc1,AC50,[1],"10 µM [falling, partial curve]"
Cc1cc(C)cc(NC(=O)C2CCCN2S(=O)(=O)c2ccc3nc(-c4ccccc4)[nH]c3c2)c1 (stereo not drawn),AC50,[1],"10 µM [falling, partial curve]"
O=C(O)CC(NC(=O)c1ccccc1NC(=O)c1ccccc1)C(=O)O (stereo not drawn),AC50,[1],"5.01 µM [falling, partial curve]"
CCC1Oc2ccccc2N(CC(=O)NCc2cc(OC)ccc2OC)C1=O (stereo not drawn),AC50,[1],"10 µM [falling, partial curve]"
O=c1[nH]c2ccccc2n1CCCSCCCn1c(=O)[nH]c2ccccc21,AC50,[1],"10 µM [falling, partial curve]"
O=C(Nc1nc2ccccc2n1Cc1ccccc1)c1ccco1,AC50,[1],"39.8 µM [rising, single point] [measured here: IkB-luc green channel]"
O=C(Oc1cccc2cccnc12)c1cccs1,AC50,[1],"20 µM [rising, partial curve] [measured here: IkB-luc green channel]"
COc1cccc(CNCc2cccn2-c2nnc(N3CCN(c4ccccc4)CC3)s2)c1,AC50,[1],"20 µM [falling, single point]"
COc1ccc(-c2[nH]ncc2C(=O)NCc2cccc(OC)c2)cc1,AC50,[1],"20 µM [falling, single point]"
CCOc1cccc2cc(-c3cn4c(n3)sc3ccccc34)c(=O)oc12,AC50,[1],"0.251 µM [falling, full curve]"
Cc1ccsc1CN(C(=O)COc1ccc(Cl)cc1)C1CCS(=O)(=O)C1 (stereo not drawn),AC50,[1],"39.8 µM [falling, single point]"
O=S(=O)(c1ccc2c(c1)OCCO2)N1CCC(c2nc3ccc(Cl)cc3[nH]2)CC1,AC50,[1],"15.8 µM [falling, partial curve]"
O=C(CCNc1ccc(F)c(Cl)c1)c1ccco1,AC50,[1],"39.8 µM [falling, single point]"
COc1ccccc1CCC(=O)Nc1nc2ccccc2[nH]1,AC50,[1],"0.251 µM [falling, full curve]"
Cc1ccc(CNC(=O)CSc2nnc(C)c3c(C)n(-c4ccccc4)nc23)cc1,AC50,[1],"6.31 µM [falling, partial curve]"
O=C(c1ccc(S(=O)(=O)N2CCCCC2)cc1)N1CCN(Cc2ccc3c(c2)OCO3)CC1,AC50,[1],"10 µM [falling, partial curve]"
COc1ccccc1N1CCN(C(=O)C(Cc2ccccc2)NC(=O)C2CCCCC2)CC1 (stereo not drawn),AC50,[1],"25.1 µM [falling, partial curve]"
CC1CCN(S(=O)(=O)c2ccc3c(ccc(=O)n3CC(=O)NCc3ccccc3Cl)c2)CC1,AC50,[1],"39.8 µM [falling, partial curve, poor fit]"
Cc1cc(OCC(=O)NC(Cc2c[nH]c3ccccc23)C(=O)O)ccc1Cl (stereo not drawn),AC50,[1],"39.8 µM [falling, partial curve, poor fit]"
CCOC(=O)c1[nH]c(C)c(CCC(=O)Nc2ccccc2C(=O)OC)c1C,AC50,[1],"39.8 µM [falling, single point]"
CCc1nn(CC(=O)NCCc2ccc(Cl)cc2)c(=O)c2cc3ccccc3n12,AC50,[1],"10 µM [falling, partial curve]"
Cc1ccc(CNC(=O)c2ccc3c(c2)N(Cc2ccccc2Cl)C(=O)CS3)cc1,AC50,[1],"10 µM [falling, partial curve]"

# Given with bars between the fields: part of the list above.
smiles | measurement | setting | value
CCCC(=O)N1c2nc(C(C)C)nn2C2(CCCCC2)[C@@H]2CCCC[C@@H]21 | AC50 | [1] | 15.8 µM [falling, partial curve]
COc1cccc(NS(=O)(=O)c2ccc3[nH]cc(C(=O)N(C)C4CCCCC4)c(=O)c3c2)c1 | AC50 | [1] | 12.6 µM [falling, partial curve, poor fit]
O=C(c1cc(-c2cccc(O)c2)on1)N1CCc2ccccc2C1 | AC50 | measured here: IkB-luc green channel | 25.1 µM [falling, partial curve]
same | AC50 | measured here: control luc red channel | 12.6 µM [falling, partial curve]
